The text below walks through data of patent US20240301062A1.

The target of assay [1] is cyno CLDN6 (cyno). Briefly: flow cytometry on CHOK1/cyno CLDN6 cells, MFI(PE). A general note: In flow cytometry, cells or beads pass a laser one at a time.
In assay [2] the target is cyno CLDN6 (cyno). Nature of the assay: flow cytometry, CHOK1/Cyno CLDN6-GFP cells.
In assay [3] the target is cyno CLDN6 (cyno). Briefly: FACS, CHOK1-cyno CLDN6 cells.

Numbering of substitutions follows the chain as printed. Results are given in words; binding and its absence hold for the method and conditions named. A result given as binding can be weak or reduced; the word gives no strength.

B1: chimeric BG87P antibody (chBG87P) (antibody, V domains shown)
VH: QIQLQQSGPELVKPGASVKISCKASGYSFTDYHINWVKQRPGQGLEWIGWIYPGSGYTKYNEKFKVKATLTVDTSSSTAYMHLTSLTSEDSAVYFCARSGIYHYVSSYYFDHWGQGTTLTVSS
VL: DIVMTQSHTFMSTSVGDRVSITCKASQDVGTAVAWYQQKPGQSPKLLIYWASTRHTGVPDRFTGSGSGTDFTLTISNVQSEDLADYFCQQYSSYTFGGGTKLEIK
Turning to B1, the binding entry with cyno CLDN6 (cyno) [1] is “binds”.

B2: BG87P (mouse anti-CLDN6 antibody, hybridoma clone) (antibody, V domains shown)
VH: B1 VH
VL: B1 VL
As for B2, the binding result with cyno CLDN6 (cyno) [2] is reported as “binds”.

B3: BG87P-21 (antibody, V domains shown)
VH: QVQLVQSGAEVKKPGASVKVSCKASGYSFTDYHINWVRQAPGQRLEWMGWIYPGSGYTKYNEKFKGRVTITRDTSASTAYMELSSLRSEDTAVYYCARSGIYHYVSSYYFDHWGKGTTVTVSS
VL: DIQMTQSPSTLSASVGDRVTITCKASQDVGTAVAWYQQKPGKAPKLLIYWASTRHTGVPSRFSGSGSGTEFTLTISSLQPDDFATYYCQQYSSYTFGGGTKVEIK
With B3, the binding result with cyno CLDN6 (cyno) [1] is “binds”.

B4: BG87P-33 (antibody, V domains shown)
VH: EVQLQESGGGLVQPGGSLRLSCAASGYSFTDYHINWVRQAPGKGLEWVSYIYPGSGHTKYNEKFKGRFTISRDTSKNTAYLQMNSLRAEDTAVYYCARSGIYHYVSSYYFDHWGQGTLVTVSS
VL: B3 VL with V29A, T31S
In the case of B4, the binding entry in the assay with cyno CLDN6 (cyno) [1] is “binds”.

B5: BG87P-34 (antibody, V domains shown)
VH: B4 VH with T30S, S49G, K76S
VL: B3 VL with T10S, V29A, T31S, E70D, D81E, V102L
Take B5: the binding entry with cyno CLDN6 (cyno) [3] and with cyno CLDN6 (cyno) [1] was “binds” in each case.
